Test results published in PMC3520120.
Results are given in words; binding and its absence hold for the method and conditions named. Binding seen in cells or lysates may run through a third protein. Some binding calls cover weakened binding; strength is not graded here. Where a sequence is shown, tags or fusion partners need not be part of it.

Key:
[1] = target: T1, FLAG-tagged LRP10^ΔCD (LRP10 lacking the cytoplasmic domain) (human) (UniProt Q7Z4F1); experiment: co-IP; lysates of transfected HEK cells (both partners co-expressed, or LRP10-HA alone with endogenous APP); 50 mM Tris pH 7.4, 150 mM NaCl, 1% NP-40; precipitation with anti-HA, anti-APP or anti-FLAG overnight at 4°C, protein A- or G-Sepharose; immunoblot
T1 sequence: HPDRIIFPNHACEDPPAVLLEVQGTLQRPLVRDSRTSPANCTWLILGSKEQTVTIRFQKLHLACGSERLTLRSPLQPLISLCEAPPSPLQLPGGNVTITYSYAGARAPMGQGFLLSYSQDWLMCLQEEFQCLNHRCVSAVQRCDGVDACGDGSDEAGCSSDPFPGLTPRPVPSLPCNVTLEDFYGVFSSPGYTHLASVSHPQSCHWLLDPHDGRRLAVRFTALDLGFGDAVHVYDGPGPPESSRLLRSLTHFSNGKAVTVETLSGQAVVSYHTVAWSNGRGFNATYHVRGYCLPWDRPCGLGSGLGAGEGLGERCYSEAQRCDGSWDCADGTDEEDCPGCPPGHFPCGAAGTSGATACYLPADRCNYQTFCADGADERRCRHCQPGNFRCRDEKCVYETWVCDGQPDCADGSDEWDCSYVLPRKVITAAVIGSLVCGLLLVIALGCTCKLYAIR

[2] = target: T2, HA-tagged LRP10 (LDLR-related protein 10), wild type (human) (UniProt Q7Z4F1); experiment: as above
T2 sequence: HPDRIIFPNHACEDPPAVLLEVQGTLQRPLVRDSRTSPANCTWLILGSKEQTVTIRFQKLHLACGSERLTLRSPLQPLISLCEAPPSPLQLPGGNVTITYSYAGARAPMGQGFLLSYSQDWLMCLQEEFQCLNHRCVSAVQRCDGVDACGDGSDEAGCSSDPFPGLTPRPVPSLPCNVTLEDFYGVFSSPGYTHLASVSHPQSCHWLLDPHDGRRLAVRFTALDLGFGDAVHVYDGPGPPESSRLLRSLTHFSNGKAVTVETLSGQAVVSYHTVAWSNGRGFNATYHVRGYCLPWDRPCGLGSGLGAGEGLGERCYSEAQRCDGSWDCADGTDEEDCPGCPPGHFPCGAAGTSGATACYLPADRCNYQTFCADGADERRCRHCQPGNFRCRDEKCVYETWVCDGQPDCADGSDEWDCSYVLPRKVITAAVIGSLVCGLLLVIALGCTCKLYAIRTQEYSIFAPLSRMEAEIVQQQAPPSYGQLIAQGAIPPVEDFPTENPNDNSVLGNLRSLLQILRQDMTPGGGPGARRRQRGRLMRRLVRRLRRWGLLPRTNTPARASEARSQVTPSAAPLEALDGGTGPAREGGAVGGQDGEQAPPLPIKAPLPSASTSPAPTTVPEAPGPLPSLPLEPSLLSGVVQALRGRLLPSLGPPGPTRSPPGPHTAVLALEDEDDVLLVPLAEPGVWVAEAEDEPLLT

[3] = target: T3, FLAG-tagged LRP10^ΔED (LRP10 lacking the extracellular domain) (human) (UniProt Q7Z4F1); experiment: as above
T3 sequence: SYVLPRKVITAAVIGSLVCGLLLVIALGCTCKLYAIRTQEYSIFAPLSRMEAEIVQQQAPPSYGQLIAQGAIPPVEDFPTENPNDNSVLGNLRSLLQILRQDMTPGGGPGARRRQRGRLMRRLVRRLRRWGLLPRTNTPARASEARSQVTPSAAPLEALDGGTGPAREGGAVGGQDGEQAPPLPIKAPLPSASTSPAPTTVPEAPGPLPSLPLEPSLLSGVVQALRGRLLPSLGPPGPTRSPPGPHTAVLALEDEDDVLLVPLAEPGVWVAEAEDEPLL

[4] = target: T2, HA-tagged LRP10 (LDLR-related protein 10), wild type (human); experiment: co-IP; HEK cells transfected separately with GFP, GFP-APP695 or LRP10-HA; lysates mixed after lysis, then precipitated with anti-HA; immunoblot with anti-HA and anti-GFP

Substance	binding [1]	binding [2]	binding [3]	binding [4]
untagged APP695 (from UniProt P05067-4 18-695)	binds	binds	binds weakly	
GFP-tagged APP695 (from UniProt P05067-4 18-695)		binds		binds weakly
